According to patent US20120180150A1 (published 2012):
No constants are given. Whether binding was seen depends on the method and setting. For some assays here: Binding seen in cells or lysates may run through a third protein. Some binding calls cover weakened binding; strength is not graded here.

The chains behind the UniProt entries cited, without tags or fusion partners. Where a name states a change or a piece, a line headed by the entry shows the natural chain unless it says otherwise.
UniProt P11881: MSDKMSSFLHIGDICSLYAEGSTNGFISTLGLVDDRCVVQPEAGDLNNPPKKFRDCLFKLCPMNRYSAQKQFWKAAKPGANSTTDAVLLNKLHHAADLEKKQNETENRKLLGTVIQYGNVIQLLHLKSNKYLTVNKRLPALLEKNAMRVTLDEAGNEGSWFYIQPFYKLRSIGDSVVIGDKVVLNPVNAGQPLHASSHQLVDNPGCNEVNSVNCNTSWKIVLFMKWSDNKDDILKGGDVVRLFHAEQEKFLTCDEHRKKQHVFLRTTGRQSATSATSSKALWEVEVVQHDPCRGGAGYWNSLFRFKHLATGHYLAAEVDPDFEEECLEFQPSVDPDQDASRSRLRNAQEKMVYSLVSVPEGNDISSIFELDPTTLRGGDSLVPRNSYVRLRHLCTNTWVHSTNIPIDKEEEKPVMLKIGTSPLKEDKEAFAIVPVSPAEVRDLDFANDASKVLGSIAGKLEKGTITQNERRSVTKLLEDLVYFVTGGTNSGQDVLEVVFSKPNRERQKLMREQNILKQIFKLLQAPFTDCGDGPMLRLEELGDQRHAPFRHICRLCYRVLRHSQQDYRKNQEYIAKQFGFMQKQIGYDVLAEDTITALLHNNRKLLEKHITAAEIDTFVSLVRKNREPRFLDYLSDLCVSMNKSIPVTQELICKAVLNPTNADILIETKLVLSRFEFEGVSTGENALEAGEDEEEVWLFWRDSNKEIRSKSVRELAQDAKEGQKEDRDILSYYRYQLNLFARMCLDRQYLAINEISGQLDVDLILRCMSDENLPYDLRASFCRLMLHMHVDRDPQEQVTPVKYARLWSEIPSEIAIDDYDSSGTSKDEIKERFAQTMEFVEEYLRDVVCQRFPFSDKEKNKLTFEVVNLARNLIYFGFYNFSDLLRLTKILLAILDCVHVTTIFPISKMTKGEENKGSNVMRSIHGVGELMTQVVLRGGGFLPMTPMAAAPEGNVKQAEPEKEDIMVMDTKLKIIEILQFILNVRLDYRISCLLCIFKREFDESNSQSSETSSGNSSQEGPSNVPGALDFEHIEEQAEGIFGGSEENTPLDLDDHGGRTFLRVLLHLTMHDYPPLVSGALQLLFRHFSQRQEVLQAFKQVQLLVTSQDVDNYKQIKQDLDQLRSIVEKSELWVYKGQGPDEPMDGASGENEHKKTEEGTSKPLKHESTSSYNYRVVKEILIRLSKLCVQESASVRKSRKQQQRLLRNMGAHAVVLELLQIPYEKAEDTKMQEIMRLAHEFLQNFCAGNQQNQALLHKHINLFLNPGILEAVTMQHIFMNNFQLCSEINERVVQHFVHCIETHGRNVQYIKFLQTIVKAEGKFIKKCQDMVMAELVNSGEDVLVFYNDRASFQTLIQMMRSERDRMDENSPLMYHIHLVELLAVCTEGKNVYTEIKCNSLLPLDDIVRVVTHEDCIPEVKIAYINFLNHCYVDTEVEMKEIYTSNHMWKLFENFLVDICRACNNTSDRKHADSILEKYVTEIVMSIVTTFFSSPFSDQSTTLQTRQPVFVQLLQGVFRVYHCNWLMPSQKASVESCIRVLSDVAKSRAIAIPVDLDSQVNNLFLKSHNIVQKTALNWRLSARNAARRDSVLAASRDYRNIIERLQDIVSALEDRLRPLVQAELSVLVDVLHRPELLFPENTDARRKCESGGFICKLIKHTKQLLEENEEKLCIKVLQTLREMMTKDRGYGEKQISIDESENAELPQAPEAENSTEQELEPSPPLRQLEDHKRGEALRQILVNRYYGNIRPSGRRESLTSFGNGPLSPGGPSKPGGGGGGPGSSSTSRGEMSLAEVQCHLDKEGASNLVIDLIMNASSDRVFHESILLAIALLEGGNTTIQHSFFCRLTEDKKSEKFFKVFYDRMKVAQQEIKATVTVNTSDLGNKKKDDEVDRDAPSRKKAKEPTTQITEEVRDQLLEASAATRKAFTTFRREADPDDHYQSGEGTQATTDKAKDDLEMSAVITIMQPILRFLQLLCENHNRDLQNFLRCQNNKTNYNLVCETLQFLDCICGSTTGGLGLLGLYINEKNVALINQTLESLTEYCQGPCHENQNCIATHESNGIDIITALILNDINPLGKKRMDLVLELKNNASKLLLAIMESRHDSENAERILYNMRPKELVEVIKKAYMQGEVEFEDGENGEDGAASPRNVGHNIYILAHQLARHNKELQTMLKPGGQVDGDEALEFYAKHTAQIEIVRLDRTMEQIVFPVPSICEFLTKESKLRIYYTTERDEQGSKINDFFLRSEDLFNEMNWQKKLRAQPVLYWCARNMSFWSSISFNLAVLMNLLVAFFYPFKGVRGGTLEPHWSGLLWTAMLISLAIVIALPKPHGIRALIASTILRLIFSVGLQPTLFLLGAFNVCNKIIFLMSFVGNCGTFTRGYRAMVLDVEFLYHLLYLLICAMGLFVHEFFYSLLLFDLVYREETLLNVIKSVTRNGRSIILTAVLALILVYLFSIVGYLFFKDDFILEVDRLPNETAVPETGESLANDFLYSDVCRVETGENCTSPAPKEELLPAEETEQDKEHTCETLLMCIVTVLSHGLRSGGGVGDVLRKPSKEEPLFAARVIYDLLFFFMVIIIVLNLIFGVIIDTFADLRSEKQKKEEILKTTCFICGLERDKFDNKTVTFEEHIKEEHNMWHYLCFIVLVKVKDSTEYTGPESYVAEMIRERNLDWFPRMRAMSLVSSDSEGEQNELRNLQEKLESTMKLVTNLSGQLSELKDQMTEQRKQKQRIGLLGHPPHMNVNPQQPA
UniProt Q922B9: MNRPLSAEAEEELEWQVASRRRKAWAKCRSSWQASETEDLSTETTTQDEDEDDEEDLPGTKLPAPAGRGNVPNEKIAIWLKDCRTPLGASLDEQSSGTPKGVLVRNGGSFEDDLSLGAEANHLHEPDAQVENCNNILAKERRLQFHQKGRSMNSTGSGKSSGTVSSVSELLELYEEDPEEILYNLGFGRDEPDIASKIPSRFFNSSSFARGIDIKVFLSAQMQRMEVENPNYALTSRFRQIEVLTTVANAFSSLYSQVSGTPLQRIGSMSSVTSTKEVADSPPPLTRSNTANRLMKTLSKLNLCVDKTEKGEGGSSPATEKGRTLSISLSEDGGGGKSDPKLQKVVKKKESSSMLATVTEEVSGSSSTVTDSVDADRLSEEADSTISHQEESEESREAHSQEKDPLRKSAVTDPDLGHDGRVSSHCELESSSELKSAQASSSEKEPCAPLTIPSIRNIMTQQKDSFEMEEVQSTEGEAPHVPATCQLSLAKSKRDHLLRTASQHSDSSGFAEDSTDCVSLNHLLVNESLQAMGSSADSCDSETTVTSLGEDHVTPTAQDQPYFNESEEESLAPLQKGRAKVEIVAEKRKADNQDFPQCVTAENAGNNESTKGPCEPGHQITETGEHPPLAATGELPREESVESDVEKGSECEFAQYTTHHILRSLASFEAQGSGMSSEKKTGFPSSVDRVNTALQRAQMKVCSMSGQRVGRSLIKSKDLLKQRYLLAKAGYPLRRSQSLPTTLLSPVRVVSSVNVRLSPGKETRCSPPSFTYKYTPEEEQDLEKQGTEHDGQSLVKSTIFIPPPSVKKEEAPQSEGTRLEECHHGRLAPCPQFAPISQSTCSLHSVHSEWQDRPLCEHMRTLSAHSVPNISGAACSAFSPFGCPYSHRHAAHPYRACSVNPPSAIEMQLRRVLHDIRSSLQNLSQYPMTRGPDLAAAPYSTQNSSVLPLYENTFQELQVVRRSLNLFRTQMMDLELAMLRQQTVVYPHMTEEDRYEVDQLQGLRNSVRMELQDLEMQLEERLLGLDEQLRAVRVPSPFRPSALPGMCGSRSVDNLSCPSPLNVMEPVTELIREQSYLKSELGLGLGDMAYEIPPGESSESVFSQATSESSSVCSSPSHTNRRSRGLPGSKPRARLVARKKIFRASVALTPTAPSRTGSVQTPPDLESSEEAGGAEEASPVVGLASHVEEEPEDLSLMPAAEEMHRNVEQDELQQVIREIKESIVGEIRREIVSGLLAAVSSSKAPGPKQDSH

Experiments:
[1] = target: endogenous IP3R1 protein of mouse tissue (mouse) (UniProt P11881); assay: immunoprecipitation with anti-KRAP antibody from mouse tissue extracts (liver, kidney, BAT, pancreas), Western blot for IP3R1
[2] = target: endogenous IP3R1 protein of mouse tissue (mouse) (UniProt P11881); assay: immunoprecipitation from mouse tissue
[3] = target: mouse IP3R1 full length with C-terminal GFP (mouse) (UniProt P11881); assay: HA-matrix co-immunoprecipitation from HEK 293 cells, anti-GFP Western blot
[4] = target: endogenous IP3R type 3 of HCT 116 cells (human) (UniProt Q14573); assay: HA-matrix co-immunoprecipitation from HCT 116 cells, anti-IP3R3 Western blot
[5] = target: mouse IP3R1 full length with C-terminal GFP (mouse) (UniProt P11881); assay: co-localisation of KRAP-HA and IP3R1-GFP in HEK 293 cells by immunofluorescence, confocal microscopy
[6] = target: endogenous IP3R1 protein of mouse tissue (mouse) (UniProt P11881); assay: anti-HA affinity matrix co-purification from liver of the KRAP transgenic mouse, Western blot with anti-IP3R antibody

endogenous KRAP protein of mouse tissue (from UniProt Q922B9 1-1252)
binding [1]: binds | binding [2]: binds

mouse KRAP deletion mutant with the coiled-coil region knocked out (1-942) (from UniProt Q922B9 1-942)
binding [3]: binds

mouse KRAP deletion mutant, amino acid residues 1-218, N-terminal HA tag (from UniProt Q922B9 1-218)
binding [3]: binds | binding [4]: binds

mouse KRAP protein, full length, with HA tag added to its C-terminus (from UniProt Q922B9 1-1252)
binding [3]: binds | binding [5]: binds | binding [6]: binds
